Data reported in the RNAGym collection of RNA variant scans (doi:10.1126/science.aae0568).
Variants at the floor of the assay are shown more often than the library holds them.

B1: tRNA (parent)
chain: GUUCCGUUGGCGUAAUGGUAACGCGUCUCCCUCCUAAGGAGAAGACUGCGGGUUCGAGUCCCGUACGGAACG

Variants of: B1
Assay: yeast fitness relative to wild type (ratio to wild type); higher = fitter; tRNA-Arg(CCU), competitive growth, 37 C, YPD
Summary of the method: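 Amplicons of the tRNA-Arg(CCU) gene were sequenced, 100-nucleotide paired-end, from the start population and from each end population of a pooled yeast competition. The competition, in six parallel replicates, lasted 24 hours in YPD at 37°C. Fitness relative to wild type was calculated from changes in genotype frequencies. Genotypes had to have ≥ 100 starting reads, and estimates < 0.5 were set to 0.5.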

Row | Variant | yeast fitness
1 | U28C G41C A42G C49A | ≤ 0.5
2 | U28C G52C A65C | 0.596
3 | U28C G67C | 0.845
4 | U28C U47A G63A A69U | ≤ 0.5
5 | U28G A36G A40C G41A A45U C62A | ≤ 0.5
6 | U28G A36U A43U | ≤ 0.5
7 | U28G A43G A45G C49U A57U | ≤ 0.5
8 | U28G C29A G41A C46G | ≤ 0.5
9 | U28G C30G A37G A40C A42U | ≤ 0.5
10 | U28G C30G A40C A42U C66U | ≤ 0.5
11 | U28G C30G A40C A42U G63C | ≤ 0.5
12 | U28G C31G G39A | 0.578
13 | U28G G39A C49A | ≤ 0.5
14 | U28G G41C U53A | ≤ 0.5
15 | U28G U32A G38C G68A | ≤ 0.5
16 | U28G U59A A70C | ≤ 0.5
17 | U28G U64C | 0.864
18 | C29A A36C G56A G68A | ≤ 0.5
19 | C29A A37U A70U | ≤ 0.5
20 | C29A A43G C66A A69U | ≤ 0.5
21 | C29A A43G U54A C61A | ≤ 0.5

Row | Variant | yeast fitness
22 | C29A C30U G38A | ≤ 0.5
23 | C29A C33U C61U A69U | ≤ 0.5
24 | C29A C33U U54C C55G | ≤ 0.5
25 | C29A C34A C62U | ≤ 0.5
26 | C29A C34G G58C | ≤ 0.5
27 | C29A C49U | 0.627
28 | C29A U32C A42U C49U C66U | ≤ 0.5
29 | C29A U32C C33U A37G U59A U64C C66U | ≤ 0.5
30 | C29A U47A G48A | ≤ 0.5
31 | C29G A40C G68A | ≤ 0.5
32 | C29G A40G C55U | ≤ 0.5
33 | C29G A40U C60G | ≤ 0.5
34 | C29G A43U C49A C60A | ≤ 0.5
35 | C29G A45U C46G G48A G56C | ≤ 0.5
36 | C29G C30G U32C A36U C55U | ≤ 0.5
37 | C29G C30U C31U U54C | ≤ 0.5
38 | C29G C33U A36G C61U A69C | ≤ 0.5
39 | C29G C49G G63C | ≤ 0.5
40 | C29G C55A A69U | ≤ 0.5
41 | C29G C55G A65C G68C | ≤ 0.5
42 | C29G C55G A70G | ≤ 0.5

Row | Variant | yeast fitness
43 | C29G G38C C49U G63A A65U | ≤ 0.5
44 | C29G G41A A43U A65U | ≤ 0.5
45 | C29G G44C C49G A57C C61U | ≤ 0.5
46 | C29G U35A C61U | ≤ 0.5
47 | C29G U35A U64C | ≤ 0.5
48 | C29G U35G G41C | ≤ 0.5
49 | C29G U47A G58A C66A | ≤ 0.5
50 | C29G U53A G68C | ≤ 0.5
51 | C29G U59A C60G C62U | ≤ 0.5
52 | C29U A37C A40G C62G G63A C66G A69G | ≤ 0.5
53 | C29U A42U A43U A57C A70G | 0.577
54 | C29U A43G C49A G63A | ≤ 0.5
55 | C29U A69C | 0.939
56 | C29U C30U A43U A65U | 0.588
57 | C29U C30U A65G | 0.704
58 | C29U C30U G63A | 0.514
59 | C29U C31G C34G A37C | ≤ 0.5
60 | C29U C33G G67A | ≤ 0.5
61 | C29U C34G U47C | ≤ 0.5
62 | C29U C34U C62A C66U | ≤ 0.5
63 | C29U C49U U53C C61A | ≤ 0.5

Row | Variant | yeast fitness
64 | C29U G38A G48C A57G | ≤ 0.5
65 | C29U G38C A45G G51C | ≤ 0.5
66 | C29U G41C C49A | 0.62
67 | C29U U32A G67A | ≤ 0.5
68 | C29U U32C A40U G41A | ≤ 0.5
69 | C29U U35G A37C G38C C49G | ≤ 0.5
70 | C29U U47C G67C | ≤ 0.5
71 | C30A | 0.998
72 | C30A A36C G38A C61U | ≤ 0.5
73 | C30A A37G A57G U64A | ≤ 0.5
74 | C30A A40G G50A C55U C61G A65C A70C | ≤ 0.5
75 | C30A A69G | 0.915
76 | C30A C31U C55G | ≤ 0.5
77 | C30A G41C G63C | ≤ 0.5
78 | C30A G44A G67C | ≤ 0.5
79 | C30A G51C C55A C66U | ≤ 0.5
80 | C30A G52A | 0.813
81 | C30A U54A A57C | 0.548
82 | C30A U54G G56A | ≤ 0.5
83 | C30G | 0.68
